Some of the results follow.
Tested on: T1, CTL2-GFP (C. trachomatis L2/434/Bu, GFP-expressing)
T1 construct: L2/434/Bu, GFP-expressing
Parameters: species or system HeLa; Intracellular C. trachomatis growth in HeLa cells, bulk GFP fluorescence relative to DMSO
Settings: bulk GFP, single well; 28.5 h, 10 µM; inhibitor

| Compound | % of control remaining |
| --- | --- |
| O=C(NC(C(=O)N/N=C/c1ccccc1O)c1n[nH]c(=O)c2ccccc12)c1ccccc1 (stereo not drawn) [CBK261117] | 87.9342% |
| O=C(c1cn2cc(-c3cccs3)n(CC3CC3)c(=O)c2n1)N1CCCC1 [CBK306756] | 117.076% |
| CN1CCN(C(=O)c2n[nH]c3c2CCCC3)C(Cc2ccc(-c3cccs3)cc2)C1=O (stereo not drawn) [CBK285812] | 121.544% |
| Cc1ccc(S(=O)(=O)Nc2c(C(=O)N3CCN(C)CC3)[nH]c3ccccc23)cc1[N+](=O)[O-] [CBK050060] | 118.101% |
| CCSc1nnc(-c2cccc(C)c2)n1CC1CCCO1 (stereo not drawn) [CBK085413] | 121.213% |
| O=C(Cc1ccc(F)cc1)N1CCn2c(nnc2C2CC2)C1 [CBK283688] | 98.4445% |
| O=C(NC1CC1)c1ccc(-n2cccn2)c(C#Cc2ccccn2)c1 [CBK282272] | 124.199% |
| COCCN(C)c1nc2c(c(=O)[nH]1)Cc1ccccc1OC2 [CBK306737] | 131.734% |
| O=C(c1ccc2c(c1)C(=O)N(N1C(=O)c3ccccc3C1=O)C2=O)c1ccc2c(c1)C(=O)N(N1C(=O)c3ccccc3C1=O)C2=O [CBK261182] | 95.4397% |
| Cn1nc(C(C)(C)C)c2cc(C(=O)N3CCn4nccc43)cnc21 [CBK305466] | 104.715% |
| COc1cc(-c2nc(NC(=O)C(C)C)cc3ccccc23)cc(OC)c1OC [CBK085741] | 98.0914% |
| Cc1cccc(CCNC(=O)CC2CCN(C(=O)CC3CCCCC3)CC2)c1 [CBK285964] | 92.238% |
| CCCOC1CCCN(C(=O)c2cncc(F)c2)C1 (stereo not drawn) [CBK304623] | 89.3144% |
| O=c1c(C(F)(F)F)cccn1Cc1ccccc1 [CBK023620] | 107.311% |
| COc1ccc2oc(C(=O)NC(C)c3cn(C)nc3C)cc2c1 (stereo not drawn) [CBK281573] | 96.1765% |
| Cc1cc(SCC2=NNC(=O)C2)c(Cl)cc1Cl [CBK067769] | 110.395% |
| CCN(CCO)C(=O)c1cccc(-c2cnn(C(F)F)c2C)c1 [CBK307519] | 153.131% |
| COc1ccccc1-c1nc(SCc2ccc(C(=O)O)cc2)n[nH]1 [CBK266631] | 155.114% |
| Oc1ccc(SCCCCCN2CCCCC2)cc1 [CBK261488] | 80.6759% |
| NC(=O)C1(Cc2ccccc2-c2cccc(F)c2)CCN(C(=O)c2cccc(F)c2)CC1 [CBK285693] | 121.025% |
| Cc1nnc(N2CCn3nc(C(O)Cc4ccccc4)cc3C2)s1 (stereo not drawn) [CBK307152] | 108.442% |

A draw from above in order of molecular weight, descending.

| Compound | % of control remaining |
| --- | --- |
| NC(=O)C1(Cc2ccccc2-c2cccc(F)c2)CCN(C(=O)c2cccc(F)c2)CC1 [CBK285693] | 121.025% |
| Cc1cccc(CCNC(=O)CC2CCN(C(=O)CC3CCCCC3)CC2)c1 [CBK285964] | 92.238% |
| CCSc1nnc(-c2cccc(C)c2)n1CC1CCCO1 (stereo not drawn) [CBK085413] | 121.213% |
| COCCN(C)c1nc2c(c(=O)[nH]1)Cc1ccccc1OC2 [CBK306737] | 131.734% |
| O=c1c(C(F)(F)F)cccn1Cc1ccccc1 [CBK023620] | 107.311% |
